Results deposited as PubChem BioAssay AID686943 (Drosophila RNAi Screening Center, 2013)
Aim: 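Knockdowns that increase or decrease active ERK after insulin receptor stimulation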 (primary screen). System: Drosophila S2R+ haemocyte-like cells expressing YFP-tagged ERK (Rolled). Knock-down reagent: long dsRNA against Drosophila genes. Conditions: insulin stimulation versus unstimulated cells; dose and duration not given. Measurement: 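Per-plate z-scores of phospho-ERK immunostaining normalised to YFP-tagged ERK, measured with and without insulin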. Direction: replicate 1, z-score of dpERK with insulin and replicate 2, z-score of dpERK with insulin: higher = more active ERK per ERK-YFP after insulin; replicate 1, z-score of dpERK under basal conditions: higher = more basal active ERK per ERK-YFP; replicate 1, z-score of ERK-YFP with insulin: higher = more YFP-tagged ERK signal.
The screen tested about 23,000 reagents; this is an unselected part of those that have a named target and a result. 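Extra replicates exist only for a retested subset of genes; insulin dose and duration not given; both raised and lowered dpERK matter.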 Reagents against one gene are numbered here. Not stated in the record: the amount of reagent, the time to read-out.

target gene,reagent no.,"replicate 1, z-score of dpERK with insulin","replicate 2, z-score of dpERK with insulin","replicate 1, z-score of dpERK under basal conditions","replicate 1, z-score of ERK-YFP with insulin"
CG9849,1,0.74,0.55,2.01,-0.36
CG9205,1,-0.13,-0.5,-0.55,0.1
whe,1,0.21,0.06,0.04,0.13
CG43737,1,-0.24,0.44,0.08,0.25
CG43737,2,-0.01,0.52,-0.04,-0.49
CG15369,1,-0.03,0.39,0.1,0.26
ssp3,1,0.02,-1.04,0.33,-0.7
ssp3,2,0.37,0,-0.85,0.16
alphaTub84D,1,-1.24,-1.38,2.01,-2.44
CR30029,1,-0.38,-0.54,0.71,0.22
CG15553,1,0.41,0.1,-0.12,1.1
Ugt303A1,1,-0.47,-0.01,-0.19,-0.42
CG33177,1,0.9,0.42,0.49,-0.33
pon,1,-0.06,0.32,-0.15,0.05
beat-Vc,1,-0.69,0.61,-0.91,0.6
beat-Vc,2,-0.77,-0.02,-0.02,-0.11
IntS6,1,-2.12,-2.12,-1.24,-0.33
Spn28Dc,1,-0.66,-0.17,-1.05,-1.83
CG14300,1,0.06,-0.53,0.48,0.08
Ir60a,1,-0.19,-1.35,-0.8,0.01
CG6527,1,0.27,0.37,-0.63,-0.14
PGRP-LA,1,0.05,-0.05,-0.28,0.54
PGRP-LA,2,0.1,-0.07,-0.9,-0.6
CG31029,1,-1.04,-0.26,-0.03,1.52
Egfr,1,0.31,-0.56,1.66,-0.18
Egfr,2,-0.03,-0.07,0.66,-0.27
RhoGEF3,1,0.1,0.46,0.76,0.05
RhoGEF3,2,-0.1,0.37,0.03,0.34
RhoGEF3,3,-0.16,-0.18,0.29,-0.12
RhoGEF3,4,-0.12,-0.5,0.29,0.04
Hip14,1,1.37,0.57,0.46,0.12
Rbp9,1,0.08,-0.35,1.61,-0.08
Rbp9,2,1.17,0.43,0.26,-0.08
peo,1,0.78,0.39,0.25,0.53
Gclm,1,-0.54,0.48,0.44,-0.3
CG3163,1,0.77,0.72,-1.38,0.84
CG33060,1,1.1,0.71,-0.95,-0.36
Pldn,1,-0.05,0.05,1.29,0.64
Vha100-3,1,-0.04,-0.12,0.31,-0.11
